Earlier results in patent US7659240B2, “Mucin immobilized chromatography” (Vertex Pharmaceuticals Incorporated, priority 2002, dated 2010).
Read-outs that look alike come from different tables or passages of the source.

Test system: Caco-2
Conditions: from literature, cited from earlier work

## COc1ccc2cc([C@H](C)C(=O)O)ccc2c1 [Naproxen]
Table 5
  Peff Caco-2 (×10^−6 cm/s): 74.2 ×10^−6 cm/s
Table 6
  Peff Caco-2 (×10^−6 cm/s): 74.2 ×10^−6 cm/s
